Laboratory results: PubChem BioAssay AID1671195 (Yale University, 2021)
Assay: 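Knockdowns that increase or decrease uptake of fluorescent LDL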 (primary screen). System: human Huh7 hepatoma cells. Knock-down reagent: siRNA pool against human genes, 18 nM. Timing: about 2 to 2.5 days of knockdown, then 8 h LDL uptake. Challenge: DiI-labelled LDL at 30 µg/ml for 8 h, in lipoprotein-deficient serum medium. Detection: 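Fluorescent LDL signal imaged in cells, scaled to the plate median, robust z-score for each replicate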. Scale: robust z-score: higher = more LDL uptake after knockdown. Rule for the call: 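a gene counts as active if at least two replicate z-scores exceed ±2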.
In all, the deposit lists about 22,000 reagents; below is a random part of them. Over the whole deposit, about 1,510 (6.9%) got an active call. 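Active includes knockdowns raising or lowering LDL uptake; positive z-scores mean more uptake, negative mean less.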 A number with no mark means an inactive call. Reagents against one gene are numbered here.

{"gene":"CCP110 (centriolar coiled-coil protein 110)","reagent no.":1,"robust z-score, replicate 1":0.493,"robust z-score, replicate 2":0.465,"robust z-score, replicate 3":-1.47}
{"gene":"LINC00668 (long independently transcribed non-coding RNA 668)","reagent no.":1,"robust z-score, replicate 1":0.776,"robust z-score, replicate 2":0.856,"robust z-score, replicate 3":0.704}
{"gene":"OSTCP1 (oligosaccharyltransferase complex subunit pseudogene 1)","reagent no.":1,"robust z-score, replicate 1":-0.243,"robust z-score, replicate 2":-0.628,"robust z-score, replicate 3":-0.887}
{"gene":"FMNL1 (formin like 1)","reagent no.":1,"robust z-score, replicate 1":1.13,"robust z-score, replicate 2":0.801,"robust z-score, replicate 3":0.704}
{"gene":"ZFR2 (zinc finger RNA binding protein 2)","reagent no.":1,"robust z-score, replicate 1":-0.163,"robust z-score, replicate 2":1.56,"robust z-score, replicate 3":0.366}
{"gene":"ZFR2 (zinc finger RNA binding protein 2)","reagent no.":2,"robust z-score, replicate 1":-0.231,"robust z-score, replicate 2":0.395,"robust z-score, replicate 3":-0.0375}
{"gene":"PRRC1 (proline rich coiled-coil 1)","reagent no.":1,"robust z-score, replicate 1":2.55,"robust z-score, replicate 2":1.63,"robust z-score, replicate 3":-0.0776}
{"gene":"BRPF1 (bromodomain and PHD finger containing 1)","reagent no.":1,"robust z-score, replicate 1":-1.01,"robust z-score, replicate 2":-1.03,"robust z-score, replicate 3":-1.15}
{"gene":"ARL8B (ARF like GTPase 8B)","reagent no.":1,"robust z-score, replicate 1":1.31,"robust z-score, replicate 2":0.7,"robust z-score, replicate 3":-0.172}
{"gene":"GAPDHP26 (glyceraldehyde 3 phosphate dehydrogenase pseudogene 26)","reagent no.":1,"robust z-score, replicate 1":-0.142,"robust z-score, replicate 2":1.01,"robust z-score, replicate 3":0.738}
{"gene":"PLIN1 (perilipin 1)","reagent no.":1,"robust z-score, replicate 1":2.54,"robust z-score, replicate 2":0.26,"robust z-score, replicate 3":-1.07}
{"gene":"HAMP (hepcidin antimicrobial peptide)","reagent no.":1,"robust z-score, replicate 1":0.154,"robust z-score, replicate 2":-0.916,"robust z-score, replicate 3":-0.097}

2 entries from above in another layout.
gene,reagent no.,"robust z-score, replicate 1","robust z-score, replicate 2","robust z-score, replicate 3"
GAPDHP26 (glyceraldehyde 3 phosphate dehydrogenase pseudogene 26),1,-0.142,1.01,0.738
PLIN1 (perilipin 1),1,2.54,0.26,-1.07

The listing continues.
{"gene":"RCAN1 (regulator of calcineurin 1)","reagent no.":1,"robust z-score, replicate 1":2.32,"robust z-score, replicate 2":1.28,"robust z-score, replicate 3":1.61}
{"gene":"LOC441169 (retired record)","reagent no.":1,"robust z-score, replicate 1":0.251,"robust z-score, replicate 2":-0.094,"robust z-score, replicate 3":-0.284}
{"gene":"CD96 (CD96 molecule)","reagent no.":1,"robust z-score, replicate 1":0.386,"robust z-score, replicate 2":-1.38,"robust z-score, replicate 3":-0.896}
{"gene":"PNPLA8 (patatin like domain 8, phospholipase A2)","reagent no.":1,"robust z-score, replicate 1":1.61,"robust z-score, replicate 2":0.717,"robust z-score, replicate 3":1.1}
{"gene":"CCR7 (C-C motif chemokine receptor 7)","reagent no.":1,"robust z-score, replicate 1":-0.633,"robust z-score, replicate 2":-0.362,"robust z-score, replicate 3":-0.848}
{"gene":"OR51E2 (olfactory receptor family 51 subfamily E member 2)","reagent no.":1,"robust z-score, replicate 1":-1.26,"robust z-score, replicate 2":-0.587,"robust z-score, replicate 3":-0.395}
{"gene":"TM9SF3 (transmembrane 9 superfamily member 3)","reagent no.":1,"robust z-score, replicate 1":1.32,"robust z-score, replicate 2":1.42,"robust z-score, replicate 3":1.31}
{"gene":"ZDHHC22 (zDHHC palmitoyltransferase 22)","reagent no.":1,"robust z-score, replicate 1":1.49,"robust z-score, replicate 2":1.48,"robust z-score, replicate 3":1.77}
{"gene":"OPCML (opioid binding protein/cell adhesion molecule like)","reagent no.":1,"robust z-score, replicate 1":-1.1,"robust z-score, replicate 2":-1.58,"robust z-score, replicate 3":-1.24}
{"gene":"NDUFA12 (NADH:ubiquinone oxidoreductase subunit A12)","reagent no.":1,"robust z-score, replicate 1":0.485,"robust z-score, replicate 2":0.849,"robust z-score, replicate 3":-0.14}
{"gene":"LOC440381 (retired record)","reagent no.":1,"robust z-score, replicate 1":1.35,"robust z-score, replicate 2":1.74,"robust z-score, replicate 3":1.47}
{"gene":"SMAD3 (SMAD family member 3)","reagent no.":1,"robust z-score, replicate 1":-1.08,"robust z-score, replicate 2":-1.07,"robust z-score, replicate 3":-1.06}
